Measurements published in article PMC3461044, “Probing Protein Sequences as Sources for Encrypted Antimicrobial Peptides” (PLoS ONE, 2012).

Tests used:
[1] = Differential scanning calorimetry of the main phase transition of LUVs with peptide; conditions: pH 7.4, non-two state fit; for Tm broad, fitted (transition temperature): 0.5 mM DMPC LUVs + peptide 4 mol% (20 µM), 20 mM sodium phosphate, 150 mM NaCl, 1°C/min; for Tm broad, fitted (transition temperature) / DH broad, fitted (transition enthalpy) / DHvh broad, fitted (van't Hoff transition enthalpy): broad component; for DH broad, fitted (transition enthalpy) / DHvh broad, fitted (van't Hoff transition enthalpy) / DH sharp, fitted (transition enthalpy) / DHvh sharp, fitted (van't Hoff transition enthalpy) / Tm sharp, fitted (transition temperature): 0.5 mM DMPC LUVs + peptide 4 mol%; for DH sharp, fitted (transition enthalpy) / DHvh sharp, fitted (van't Hoff transition enthalpy) / Tm sharp, fitted (transition temperature): sharp component
[2] = Far UV circular dichroism of peptides with DMPC LUVs (MRE, α-helix percentage); conditions: for % Helicity 0.01 peptide/DMPC (mol/mol) (Greenfield 69) / % Helicity 0.01 peptide/DMPC (mol/mol) (Chen 74): DMPC LUVs; for % Helicity 0.01 peptide/DMPC (mol/mol) (Greenfield 69): from [q]208 nm, Greenfield et al. 1969; for % Helicity 0.01 peptide/DMPC (mol/mol) (Chen 74): from [q]222 nm, Chen et al. 1974; for [q]208 nm 0.01 peptide/DMPC (mol/mol) (Greenfield 69): Mean Residue Ellipticity at 208 nm; for [q]208 nm 0.01 peptide/DMPC (mol/mol) (Greenfield 69) / [q]222 nm 0.01 peptide/DMPC (mol/mol) (Chen 74): titrated with DMPC LUVs; for [q]222 nm 0.01 peptide/DMPC (mol/mol) (Chen 74): Mean Residue Ellipticity at 222 nm
[3] = Far UV circular dichroism of peptides with 2:1 DMPC:DMPG LUVs (MRE, α-helix percentage); conditions: 0.01 peptide/lipid (mol/mol); for % Helicity 0.01 peptide/(2:1 DMPC/DMPG) (mol/mol) (Greenfield 69) / % Helicity 0.01 peptide/(2:1 DMPC/DMPG) (mol/mol): 2:1 DMPC/DMPG LUVs; for % Helicity 0.01 peptide/(2:1 DMPC/DMPG) (mol/mol) (Greenfield 69): from [q]208 nm, Greenfield et al. 1969; for % Helicity 0.01 peptide/(2:1 DMPC/DMPG) (mol/mol): from [q]222 nm, Chen et al. 1974; for [q]208 nm 0.01 peptide/(2:1 DMPC/DMPG) (mol/mol) (Greenfield 69): Mean Residue Ellipticity at 208 nm; for [q]208 nm 0.01 peptide/(2:1 DMPC/DMPG) (mol/mol) (Greenfield 69) / [q]222 nm 0.01 peptide/(2:1 DMPC/DMPG) (mol/mol) (Chen 74): titrated with 2:1 DMPC/DMPG LUVs; for [q]222 nm 0.01 peptide/(2:1 DMPC/DMPG) (mol/mol) (Chen 74): Mean Residue Ellipticity at 222 nm

| Sequence | Tm broad, fitted (transition temperature) [1] | DH broad, fitted (transition enthalpy) [1] | DHvh broad, fitted (van't Hoff transition enthalpy) [1] | DH sharp, fitted (transition enthalpy) [1] | DHvh sharp, fitted (van't Hoff transition enthalpy) [1] | Tm sharp, fitted (transition temperature) [1] | % Helicity 0.01 peptide/DMPC (mol/mol) (Greenfield 69) [2] | % Helicity 0.01 peptide/DMPC (mol/mol) (Chen 74) [2] | [q]208 nm 0.01 peptide/DMPC (mol/mol) (Greenfield 69) [2] | [q]222 nm 0.01 peptide/DMPC (mol/mol) (Chen 74) [2] | % Helicity 0.01 peptide/(2:1 DMPC/DMPG) (mol/mol) (Greenfield 69) [3] | % Helicity 0.01 peptide/(2:1 DMPC/DMPG) (mol/mol) [3] | [q]208 nm 0.01 peptide/(2:1 DMPC/DMPG) (mol/mol) (Greenfield 69) [3] | [q]222 nm 0.01 peptide/(2:1 DMPC/DMPG) (mol/mol) (Chen 74) [3] |
| --- | --- | --- | --- | --- | --- | --- | --- | --- | --- | --- | --- | --- | --- | --- |
| KAGLQFPVGRIARFLK [B4FGE3(22–37), putative IAP; fragment of Histone H2A, Zea mays] | 23.52 °C | 2.97 kcal/mol | 301 kcal/mol | 2.25 kcal/mol | 1040 kcal/mol | 24.22 °C | -0.567% | 3% | -3836 | -1051 | 3.1% | 5.8% | -4889 | -2047 |
| FKALRALRLEDLRIPTSYIK [A3KLW0(117–136), putative IAP; fragment of Rubisco large chain, Anisophyllea pomifera] | 23.48 °C | 2.27 kcal/mol | 319 kcal/mol | 2.11 kcal/mol | 965 kcal/mol | 24.2 °C | 23.1% | 8.8% | -10693 | -3087 | 19.9% | 8.5% | -9759 | -3008 |
| FVTNSKRLAEGIEKGVGNSILIKVN [Q8KG25(327–351), putative IAP; fragment of Enolase 2, Chlorobium tepidum] | 23.49 °C | 2.6 kcal/mol | 298 kcal/mol | 2.08 kcal/mol | 1010 kcal/mol | 24.2 °C | 9.3% | 15% | -6689 | -5287 | 7.3% | 17% | -6110 | -6002 |
